Measurements as given in publication PMC9344728.
These are yes or no findings as the source states them, for the method shown. Binding seen in cells or lysates may run through a third protein. Some entries that bind do so weakly or less than the wild type.

Sequences of proteins named here, by UniProt entry; tags and fusion partners are left off. Residues count along the entry.
UniProt P35869, residues 11-848: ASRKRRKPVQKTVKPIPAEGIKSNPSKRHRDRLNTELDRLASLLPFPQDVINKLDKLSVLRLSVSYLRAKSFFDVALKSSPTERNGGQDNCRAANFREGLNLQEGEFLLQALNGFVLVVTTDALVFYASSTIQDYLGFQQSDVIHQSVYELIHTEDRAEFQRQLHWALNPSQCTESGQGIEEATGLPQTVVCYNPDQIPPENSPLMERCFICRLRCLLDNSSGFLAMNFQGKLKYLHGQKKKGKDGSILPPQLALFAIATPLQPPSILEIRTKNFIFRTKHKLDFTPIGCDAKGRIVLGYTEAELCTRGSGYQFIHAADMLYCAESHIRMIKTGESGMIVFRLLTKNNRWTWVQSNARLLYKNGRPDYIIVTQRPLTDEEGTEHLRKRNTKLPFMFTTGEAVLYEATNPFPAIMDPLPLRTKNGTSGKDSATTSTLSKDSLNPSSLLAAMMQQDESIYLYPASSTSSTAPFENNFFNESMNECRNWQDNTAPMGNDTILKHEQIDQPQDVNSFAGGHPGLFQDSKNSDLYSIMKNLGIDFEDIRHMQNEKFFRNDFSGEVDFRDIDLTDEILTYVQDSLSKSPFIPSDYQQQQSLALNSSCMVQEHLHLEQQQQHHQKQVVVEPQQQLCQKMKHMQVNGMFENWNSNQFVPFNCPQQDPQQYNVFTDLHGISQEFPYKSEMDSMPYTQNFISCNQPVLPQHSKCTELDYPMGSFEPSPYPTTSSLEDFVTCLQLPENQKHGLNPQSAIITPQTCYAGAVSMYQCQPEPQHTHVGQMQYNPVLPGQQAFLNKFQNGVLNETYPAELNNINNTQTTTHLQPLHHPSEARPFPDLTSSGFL

Biological target: aryl hydrocarbon receptor (UniProt P35869)
Experiment: co-IP; HEK293T cell lysate (IP lysis buffer, 200 ug protein) incubated with protein G magnetic beads and 2 ug anti-AhR antibody or IgG (NC) at 4 °C for 4 h; western blot with anti-UCHL3

binding: binds
B1: ubiquitin C-terminal hydrolase L3 (enzyme, UniProt P15374 1-230)
chain: MEGQRWLPLEANPEVTNQFLKQLGLHPNWQFVDVYGMDPELLSMVPRPVCAVLLLFPITEKYEVFRTEEEEKIKSQGQDVTSSVYFMKQTISNACGTIGLIHAIANNKDKMHFESGSTLKKFLEESVSMSPEERARYLENYDAIRVTHETSAHEGQTEAPSIDEKVDLHFIALVHVDGHLYELDGRKPFPINHGETSDETLLEDAIEVCKKFMERDPDELRFNAIALSAA
